{
  "source": "patent US20250057791A1",
  "about": "“PROTECTION AGAINST ARTHROPOD PARASITES WITH PURINERGIC RECEPTOR (OPR) ANTAGONISTS” (priority 2021, published 2025)",
  "key": {"[1]": {"tested_on": "A. gambiae mouthpart ATP-sensitive receptor", "experiment": "Electrophysiological response to 200 pM ATP with PR antagonist admixed", "type": "cell-based, Anopheles gambiae", "settings": "ATP presented again approximately 2 min after antagonist", "description": "(§1) The tip recording method was used to record action potentials (spikes) from sensory cells in sensilla on A. gambiae labellum lobes.\n(§2) Sensilla were exposed to test compounds and PR antagonists for ca. 2-4 s and spikes were counted in the first 2 s of recordings. Up to 4 test compounds were tested on a sensillum to evaluate potential agonists, each presented at 200 pM. To study responses as a function of dose for agonists ATP, adenosine, AMP, AMP-CPP and ATP+adenosine, up to 7 recordings were made at increasing doses of agonist from the same sensillum. Unless otherwise stated, recordings were made throughout from 4 to 16 sensilla from individual 4-6-day-old females per dose of agonist, antagonist and metal ion modulator. For example, a response curve established over 6 doses of an antagonist using 8 sensilla per dose involved recording from a sensillum of 48 separate mosquitoes. A given dose of a PR antagonist or metal ion modulator was only presented once to a sensillum. Two-second recordings were imported as ASCII files into DataView software for analysis of spike amplitude. […]\nPairwise comparisons of A. gambiae electrophysiological (EP) responses to ATP and adenosine alone and combined with a given dose of PR antagonist, EP responses to ATP alone and combined with a given dose of a metal modulator, and EP responses to ATP prior to and after exposure of a sensillum to a given dose of a PR antagonist were made with a one-tailed Wilcoxon signed-rank test for data showing a non-normal distribution, with a paired Student's t-test for normally distributed data showing homogeneous variance and with a Welch's t-test for normally distributed data showing non-homogeneous variance. […] Percent feeding inhibition induced by PR antagonists in A. stephensi was calculated using Abbott's formula.\nDose-response models fitted to mosquito data were generated using the ‘drm’ command in the “drc” R package (version 2.5-12). Best fitting models (goodness of fit) and effects of dose of a compound were assessed using, respectively, ‘modelFit’ and ‘noEffect’ functions in the same R package. A 3-parameter logistic model (L3) was fitted to spike-counts recorded to increasing doses of adenosine, AMP, ATP and AMP-CPP. Spike numbers recorded in response to 200 pM ATP with increasing doses of PR antagonists added were analysed using a 4-parameter log-logistic model (LL.4) for A-317491 and spinorphin, using a 4-parameter Weibull model (W1.4) for PPADS, RB-2 and TMP, and using a 3-parameter log-logistic model (LL.3) for suramin. […] Feeding rates on 20 μM ATP with increasing doses of a PR antagonist added were analysed using a 4-parameter log-logistic model (LL.4) with the median of the positive control (20 μM ATP) fixed as the upper asymptote. […]"}, "[2]": {"tested_on": "A. gambiae labellum sensilla (purine-sensitive cell)", "experiment": "Tip recording of action potentials from A. gambiae labellum sensilla in response to agonists", "type": "cell-based, Anopheles gambiae", "settings": "200 pM", "description": "as §1, §2\nSpike counts elicited by 200 pM doses of nucleotides, nucleosides, purines, pyrimidines and water were log(x+1.25)-transformed (optimal constant numerically established using a maximum likelihood procedure) and analysed using a linear mixed effects model (function ‘lme’ in “nlme” R package) with mosquito number as random effect. […] Spike counts elicited by ATP, AMP, adenosine and their binary mixtures were analysed using a generalised linear model (LM) of log (x+10) transformed data and differences were identified using post-hoc-Tukey test with Holm's FWEC. […]\nDose-response models fitted to mosquito data were generated using the ‘drm’ command in the “drc” R package (version 2.5-12). Best fitting models (goodness of fit) and effects of dose of a compound were assessed using, respectively, ‘modelFit’ and ‘noEffect’ functions in the same R package. A 3-parameter logistic model (L3) was fitted to spike-counts recorded to increasing doses of adenosine, AMP, ATP and AMP-CPP. […]"}},
  "note": "Some of these results come from one statement about several compounds together. Some ranges recur; such a range may be that of the whole group of compounds.",
  "data": [
    {"smiles": "O=C(O)c1cc(C(=O)O)c(C(=O)N(Cc2cccc(Oc3ccccc3)c2)[C@H]2CCCc3ccccc32)cc1C(=O)O", "note": "[A-317491, 5-[(3-phenoxyphenyl)methyl-[(1S)-1,2,3,4-tetrahydronaphthalen-1-yl]carbamoyl]benzene-1,2,4-tricarboxylic acid]", "values": [
      {"measurement": "duration of antagonism of the response to ATP", "setting": "[1]", "value": "at least 2 min"}
    ]},
    {"smiles": "Nc1ncnc2c1ncn2[C@@H]1O[C@H](COP(=O)(O)O)[C@@H](O)[C@H]1O", "note": "[AMP, Adenosine 5′-monophosphate]", "values": [
      {"measurement": "EP response, spike frequency", "setting": "[2]", "value": "23 to 26", "unit": "spikes/2s"}
    ]},
    {"smiles": "Nc1ncnc2c1ncn2[C@@H]1O[C@H](COP(=O)(O)OP(=O)(O)OP(=O)(O)O)[C@@H](O)[C@H]1O", "note": "[ATP, Adenosine 5′-triphosphate]", "values": [
      {"measurement": "EP response, spike frequency", "setting": "[2]", "value": "23 to 26", "unit": "spikes/2s"}
    ]},
    {"smiles": "Nc1ncnc2c1ncn2[C@@H]1O[C@H](CO)[C@@H](O)[C@H]1O", "note": "[Adenosine, 9-β-D-Ribofuranosyladenine]", "values": [
      {"measurement": "EP response, spike frequency", "setting": "[2]", "value": "23 to 26", "unit": "spikes/2s"}
    ]},
    {"smiles": "Cc1nc(C)c(C)nc1C", "note": "[TMP, 2,3,5,6-tetramethylpyrazine]", "values": [
      {"measurement": "duration of antagonism of the response to ATP", "setting": "[1]", "value": "at least 2 min"}
    ]}
  ]
}
